In all, about 53,000 sequences went through this assay and about 3,700 (7%) were called active.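 Rule for the calls: active = gene knockdowns whose robust z-score for IL-1 alpha signal is at least 2 or at most -2, so actives lie on both sides; inactive = the rest.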 This is one part of the list.
test: Components of the Cytosolic LPS Sensing Pathway: Gene Identification via Genome-wide siRNA Screen; conditions: RAW264.7 macrophages, IL-1a HTRF, actives lie on both sides, screened at 100 nM (by protocol), cells primed 5 h with Pam3CSK4 first;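 note: robust z of the log signal after scaling to non-targeting control siRNA wells of the plate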
Method in brief: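 Mouse macrophage line RAW264.7 is transfected with siRNA (100 nM final), grown 48h, primed with TLR ligand Pam3CSK4 5 h and given intracellular LipidA 24 h. IL-1a in supernatant is read by HTRF and viability by luminescence.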

z-score, inactive:
GGAAAGACCAUUCUGUAUUTT against Vps37d -1.54
GUUAAAAAGUGGAAUGCAGTT against Rbx1 -0.609
GGAAACCGAAUUCCAAGGGTT against Ddx25 1.78
GGACAUUAGCCAACACAUCTT against Scp2d1 1.17
CCUUCCAUCCGAUUUGAAGTT against Ell -0.241
GGUUCCUCUGUAAAAAGAUTT against Defb13 -0.0112
CCUAUCAGUCUAUCAUGUATT against Kdr 0.31
GGCAGACAGAAGAUAUUUGTT against Aknaos -1.51
GCAGGAUACAAUGUAAAGCTT against Rab6a -0.392
GGUUGUAGACUUUAUUCAATT against Ppm1g 0.948
GCGUAUUUAUCAGAGUUCATT against Wdr78 0.828
GCCUAAGGAGUUUCUGAUATT against Ly6k -1.76
GCUACAGUUACUUAAAUGATT against Glipr1l2 -0.141
GGAAUGCUAUUCUCGGACUTT against Lrg1 0.432
GGAAAGCAUCAUUGAAAACTT against Dkk1 0.429
GGUCUAUGACAAGAAUUUUTT against Rdh7 0.165
GGUAACCUGUACAAUUGACTT against Serpinb1c -0.239
GAGCAUUGUCUACCUGGAATT against Vmn1r200 0.519
GGCAGAAGAACUUUUCCAGTT against Capsl 0.874
GAGACAAGGGUCGUCUAAUTT against Dusp13 1.42
CCCUCAAGUCGCACCUUUUTT against Dgkk 0.28
GGCCAAGAUCAUGAUCACCTT against Cldn4 -0.314
GGUUCAAUAUGAAGUUGUUTT against Iqcf3 -0.896
GGCAUGAUAACUUGAAAUGTT against Dnah11 0.97
GGCACUUCUUUCCAAGACGTT against Gbp7 -0.373
GGCUCUCAUCCAUCUCCUUTT against Olfr715 -1.79
GGAUGAAUGGUUUAUUGUUTT against Ecd -0.903
GCCGUACUUUGUCUUUGACTT against Fam187b -1.65
GGAACUAGCACAAUGGUUCTT against Alkbh5 1.21
CGAUUUAAGGAUUUUUACCTT against Dcun1d1 0.571

2 consecutive entries out of the list so far:
z-score, inactive:
GGUAACCUGUACAAUUGACTT against Serpinb1c -0.239
GAGCAUUGUCUACCUGGAATT against Vmn1r200 0.519
